Results are given in words; binding and its absence hold for the method and conditions named. In cells and extracts the contact can be indirect. Some binding calls cover weakened binding; strength is not graded here. For some assays here: Where a sequence is shown, tags or fusion partners need not be part of it.
Legend:
[1] = target: Flag-FASN (UniProt P49327); assay: co-IP; lysates of HEK293T cells expressing Flag-FASN and HA-ZDHHC21; anti-Flag or anti-HA magnetic beads; western blot
[2] = target: FASN (human (endogenous in Toledo)) (UniProt P49327); assay: co-IP; cellular extracts of Toledo cells incubated with anti-FASN or anti-ZDHHC21 antibodies; western blot; endogenous proteins

Protein sequences, listed by entry. Tags and fused reporters are not part of them.
UniProt P49327: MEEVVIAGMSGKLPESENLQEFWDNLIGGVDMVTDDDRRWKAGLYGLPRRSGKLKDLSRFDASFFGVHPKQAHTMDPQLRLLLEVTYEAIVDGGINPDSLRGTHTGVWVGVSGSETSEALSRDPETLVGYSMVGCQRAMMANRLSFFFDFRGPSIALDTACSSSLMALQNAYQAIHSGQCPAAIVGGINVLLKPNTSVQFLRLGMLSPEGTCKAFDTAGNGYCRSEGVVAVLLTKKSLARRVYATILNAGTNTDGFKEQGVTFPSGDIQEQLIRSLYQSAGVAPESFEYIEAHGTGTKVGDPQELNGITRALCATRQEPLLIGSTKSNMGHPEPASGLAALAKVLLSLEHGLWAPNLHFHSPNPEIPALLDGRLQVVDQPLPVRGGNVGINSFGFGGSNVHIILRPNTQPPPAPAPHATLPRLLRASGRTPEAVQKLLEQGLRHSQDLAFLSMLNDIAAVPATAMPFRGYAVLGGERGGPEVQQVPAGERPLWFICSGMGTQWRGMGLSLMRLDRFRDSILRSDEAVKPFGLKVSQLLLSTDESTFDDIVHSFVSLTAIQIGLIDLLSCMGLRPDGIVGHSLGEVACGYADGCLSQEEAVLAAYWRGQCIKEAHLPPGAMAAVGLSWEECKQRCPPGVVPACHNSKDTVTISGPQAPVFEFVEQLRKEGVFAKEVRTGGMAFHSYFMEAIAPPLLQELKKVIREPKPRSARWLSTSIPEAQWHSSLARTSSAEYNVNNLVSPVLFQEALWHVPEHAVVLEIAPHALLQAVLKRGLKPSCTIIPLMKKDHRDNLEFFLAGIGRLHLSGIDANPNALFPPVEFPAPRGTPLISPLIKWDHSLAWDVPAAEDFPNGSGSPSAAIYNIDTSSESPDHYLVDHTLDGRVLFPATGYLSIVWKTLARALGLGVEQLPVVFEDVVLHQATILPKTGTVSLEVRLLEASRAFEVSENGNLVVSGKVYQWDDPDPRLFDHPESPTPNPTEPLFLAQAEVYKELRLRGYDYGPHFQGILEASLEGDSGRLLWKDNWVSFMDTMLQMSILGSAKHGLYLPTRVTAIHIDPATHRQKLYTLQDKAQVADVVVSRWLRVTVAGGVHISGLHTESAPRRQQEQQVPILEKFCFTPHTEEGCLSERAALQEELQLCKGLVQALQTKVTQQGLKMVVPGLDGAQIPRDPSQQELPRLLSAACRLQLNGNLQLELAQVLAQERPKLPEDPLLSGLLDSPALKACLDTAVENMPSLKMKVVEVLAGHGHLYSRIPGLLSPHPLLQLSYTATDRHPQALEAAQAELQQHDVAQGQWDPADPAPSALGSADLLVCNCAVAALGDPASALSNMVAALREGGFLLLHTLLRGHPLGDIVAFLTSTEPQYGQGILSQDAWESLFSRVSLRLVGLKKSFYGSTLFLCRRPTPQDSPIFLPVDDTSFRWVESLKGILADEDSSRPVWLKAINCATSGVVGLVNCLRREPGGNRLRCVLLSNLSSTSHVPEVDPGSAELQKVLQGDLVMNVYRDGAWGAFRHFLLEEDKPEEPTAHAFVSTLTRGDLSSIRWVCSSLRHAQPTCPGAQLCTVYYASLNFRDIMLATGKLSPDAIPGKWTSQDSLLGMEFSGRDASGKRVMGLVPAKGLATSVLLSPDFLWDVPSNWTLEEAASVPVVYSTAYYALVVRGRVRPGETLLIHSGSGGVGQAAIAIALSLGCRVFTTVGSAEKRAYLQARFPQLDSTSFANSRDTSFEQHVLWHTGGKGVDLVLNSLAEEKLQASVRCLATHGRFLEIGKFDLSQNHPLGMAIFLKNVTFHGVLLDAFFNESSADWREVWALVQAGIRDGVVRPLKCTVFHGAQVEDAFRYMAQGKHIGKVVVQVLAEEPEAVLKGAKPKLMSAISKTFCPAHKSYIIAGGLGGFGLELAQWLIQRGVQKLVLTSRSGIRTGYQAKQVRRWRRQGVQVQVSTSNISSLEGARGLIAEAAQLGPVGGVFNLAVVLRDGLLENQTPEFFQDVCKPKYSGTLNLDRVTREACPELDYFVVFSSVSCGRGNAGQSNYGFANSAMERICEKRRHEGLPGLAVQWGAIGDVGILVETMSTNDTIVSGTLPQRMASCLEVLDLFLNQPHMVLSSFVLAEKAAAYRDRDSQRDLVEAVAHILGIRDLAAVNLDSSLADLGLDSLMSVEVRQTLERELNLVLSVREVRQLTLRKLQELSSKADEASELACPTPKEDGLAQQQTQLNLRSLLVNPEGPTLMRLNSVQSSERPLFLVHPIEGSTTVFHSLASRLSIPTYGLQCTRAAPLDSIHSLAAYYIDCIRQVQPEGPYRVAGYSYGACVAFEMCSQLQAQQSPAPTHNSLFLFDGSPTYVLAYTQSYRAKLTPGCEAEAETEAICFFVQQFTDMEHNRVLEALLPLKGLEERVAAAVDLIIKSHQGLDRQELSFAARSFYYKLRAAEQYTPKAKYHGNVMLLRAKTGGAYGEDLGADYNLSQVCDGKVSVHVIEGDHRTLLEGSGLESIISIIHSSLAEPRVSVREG

Binder | binding [1] | binding [2]
HA-ZDHHC21 (enzyme, UniProt Q8IVQ6 1-265) MGLRIHFVVDPHGWCCMGLIVFVWLYNIVLIPKIVLFPHYEEGHIPGILIIIFYGISIFCLVALVRASITDPGRLPENPKIPHGEREFWELCNKCNLMRPKRSHHCSRCGHCVRRMDHHCPWINNCVGEDNHWLFLQLCFYTELLTCYALMFSFCHYYYFLPLKKRNLDLFVFRHELAIMRLAAFMGITMLVGITGLFYTQLIGIITDTTSIEKMSNCCEDISRPRKPWQQTFSEVFGTRWKILWFIPFRQRQPLRVPYHFANHV | binds | 
ZDHHC21 (enzyme, UniProt Q8IVQ6 1-265) MGLRIHFVVDPHGWCCMGLIVFVWLYNIVLIPKIVLFPHYEEGHIPGILIIIFYGISIFCLVALVRASITDPGRLPENPKIPHGEREFWELCNKCNLMRPKRSHHCSRCGHCVRRMDHHCPWINNCVGEDNHWLFLQLCFYTELLTCYALMFSFCHYYYFLPLKKRNLDLFVFRHELAIMRLAAFMGITMLVGITGLFYTQLIGIITDTTSIEKMSNCCEDISRPRKPWQQTFSEVFGTRWKILWFIPFRQRQPLRVPYHFANHV |  | binds
